## Library screen at single concentrations

The chains behind the UniProt entries cited, without tags or fusion partners. Residues count along the entry.
UniProt I6X8D2, whole entry: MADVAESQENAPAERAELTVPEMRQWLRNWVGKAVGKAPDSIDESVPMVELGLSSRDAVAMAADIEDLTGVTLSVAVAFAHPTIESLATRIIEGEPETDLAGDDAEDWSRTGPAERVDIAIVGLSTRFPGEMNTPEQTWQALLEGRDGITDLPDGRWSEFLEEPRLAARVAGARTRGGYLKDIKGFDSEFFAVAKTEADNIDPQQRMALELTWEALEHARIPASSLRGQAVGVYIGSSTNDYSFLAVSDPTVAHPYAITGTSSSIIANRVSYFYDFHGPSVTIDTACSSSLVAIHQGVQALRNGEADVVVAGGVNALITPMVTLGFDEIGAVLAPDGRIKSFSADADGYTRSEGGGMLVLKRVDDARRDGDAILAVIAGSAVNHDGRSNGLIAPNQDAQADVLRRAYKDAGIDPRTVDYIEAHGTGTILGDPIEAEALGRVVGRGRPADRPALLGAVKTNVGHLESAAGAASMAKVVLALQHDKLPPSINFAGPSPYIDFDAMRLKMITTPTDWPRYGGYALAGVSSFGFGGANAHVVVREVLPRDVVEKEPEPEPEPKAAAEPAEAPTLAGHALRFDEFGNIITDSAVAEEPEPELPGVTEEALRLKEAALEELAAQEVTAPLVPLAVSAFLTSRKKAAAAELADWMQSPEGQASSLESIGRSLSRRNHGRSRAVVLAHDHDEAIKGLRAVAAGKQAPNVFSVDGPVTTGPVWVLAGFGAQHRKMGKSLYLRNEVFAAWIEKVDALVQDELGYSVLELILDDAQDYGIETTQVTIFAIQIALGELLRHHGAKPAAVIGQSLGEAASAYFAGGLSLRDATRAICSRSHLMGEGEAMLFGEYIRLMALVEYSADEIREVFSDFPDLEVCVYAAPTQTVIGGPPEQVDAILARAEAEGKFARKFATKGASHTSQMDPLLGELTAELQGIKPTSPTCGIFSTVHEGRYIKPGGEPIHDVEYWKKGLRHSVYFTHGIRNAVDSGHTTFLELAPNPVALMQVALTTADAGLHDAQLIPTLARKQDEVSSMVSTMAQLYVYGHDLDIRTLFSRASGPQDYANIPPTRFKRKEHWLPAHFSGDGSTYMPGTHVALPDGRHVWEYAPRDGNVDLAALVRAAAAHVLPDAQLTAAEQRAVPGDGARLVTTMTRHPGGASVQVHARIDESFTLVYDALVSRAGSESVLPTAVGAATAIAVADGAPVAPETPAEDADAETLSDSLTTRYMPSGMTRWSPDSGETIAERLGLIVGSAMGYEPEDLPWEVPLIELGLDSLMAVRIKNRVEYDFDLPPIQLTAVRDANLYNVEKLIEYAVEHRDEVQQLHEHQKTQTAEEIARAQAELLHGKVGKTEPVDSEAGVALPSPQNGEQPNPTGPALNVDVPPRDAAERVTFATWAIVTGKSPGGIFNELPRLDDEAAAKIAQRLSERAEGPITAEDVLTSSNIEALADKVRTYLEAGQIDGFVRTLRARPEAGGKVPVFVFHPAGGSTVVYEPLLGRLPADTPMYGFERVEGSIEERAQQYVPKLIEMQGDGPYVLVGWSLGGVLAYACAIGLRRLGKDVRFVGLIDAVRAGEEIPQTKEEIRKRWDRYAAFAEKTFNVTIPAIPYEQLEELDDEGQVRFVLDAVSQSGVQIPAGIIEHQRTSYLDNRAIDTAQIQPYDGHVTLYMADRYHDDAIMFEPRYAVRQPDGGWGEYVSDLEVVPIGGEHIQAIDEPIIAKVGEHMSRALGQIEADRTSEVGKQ
UniProt Q4DA54, 1-478: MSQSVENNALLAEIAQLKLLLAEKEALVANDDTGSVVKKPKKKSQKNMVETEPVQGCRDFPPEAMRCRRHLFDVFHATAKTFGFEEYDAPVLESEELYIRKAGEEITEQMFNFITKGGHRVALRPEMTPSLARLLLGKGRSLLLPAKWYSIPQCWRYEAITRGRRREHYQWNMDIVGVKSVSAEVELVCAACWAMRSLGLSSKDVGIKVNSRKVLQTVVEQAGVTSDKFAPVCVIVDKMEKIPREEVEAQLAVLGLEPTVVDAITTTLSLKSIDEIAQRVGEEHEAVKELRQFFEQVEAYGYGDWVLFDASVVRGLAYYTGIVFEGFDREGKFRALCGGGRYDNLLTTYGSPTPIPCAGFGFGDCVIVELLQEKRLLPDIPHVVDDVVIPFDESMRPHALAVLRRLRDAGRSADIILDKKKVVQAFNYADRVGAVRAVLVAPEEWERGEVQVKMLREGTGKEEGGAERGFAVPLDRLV
UniProt P9WFT3, whole entry: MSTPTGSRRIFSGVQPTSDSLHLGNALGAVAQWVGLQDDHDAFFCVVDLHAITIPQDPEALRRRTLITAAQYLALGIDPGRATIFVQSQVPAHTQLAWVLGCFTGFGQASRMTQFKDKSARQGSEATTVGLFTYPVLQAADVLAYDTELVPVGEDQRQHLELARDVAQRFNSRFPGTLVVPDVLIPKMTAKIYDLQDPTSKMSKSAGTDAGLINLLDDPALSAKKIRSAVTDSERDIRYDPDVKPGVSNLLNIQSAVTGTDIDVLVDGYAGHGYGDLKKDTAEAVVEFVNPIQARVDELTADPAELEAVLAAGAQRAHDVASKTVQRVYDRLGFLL
UniProt P9WPC5, whole entry: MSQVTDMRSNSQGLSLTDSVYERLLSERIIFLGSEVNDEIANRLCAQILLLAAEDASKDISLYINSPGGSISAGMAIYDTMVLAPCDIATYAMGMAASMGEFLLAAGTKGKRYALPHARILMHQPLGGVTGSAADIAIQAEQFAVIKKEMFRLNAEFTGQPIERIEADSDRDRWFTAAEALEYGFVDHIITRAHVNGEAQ
UniProt P9WPC3, whole entry partner: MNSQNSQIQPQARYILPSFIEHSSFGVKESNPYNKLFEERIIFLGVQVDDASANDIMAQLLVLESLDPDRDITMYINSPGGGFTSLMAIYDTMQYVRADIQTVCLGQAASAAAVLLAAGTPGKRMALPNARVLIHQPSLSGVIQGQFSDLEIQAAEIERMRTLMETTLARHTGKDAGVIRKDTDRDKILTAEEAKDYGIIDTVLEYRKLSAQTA

Measurements from “University of Dundee, Small-Polar-MMV Screening Library” (2021), ChEMBL document CHEMBL3988442.

Values are the deposited “Percent Effect”, in %. How 0% and 100% were set is not recorded. Most values in the screen are low, and negative values occur. Compounds were drawn at random from those tested, without regard to their results.

Pks13 thioesterase: 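Enzyme assay of the thioesterase domain of polyketide synthase 13; the read-out is not stated. Target: Polyketide synthase Pks13, Mycobacterium tuberculosis (UniProt I6X8D2). Concentration: 30 µM. Higher reads as stronger inhibition (inferred from which compounds were picked for retests). Of about 67,000 compounds tested this way, about 300 (0.46%) reached 50% or more in at least one test.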
TcHisRS: 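Enzyme assay of histidyl-tRNA synthetase; the read-out is not stated. Target: Histidine-tRNA ligase, Trypanosoma cruzi CL Brener (UniProt Q4DA54). Compounds at 30 µM. Direction is inferred from retests: higher values go with stronger inhibition. Of about 69,000 compounds tested this way, about 31 (0.045%) reached 50% or more in at least one test.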
MtTrpRS: 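Enzyme assay of tryptophanyl-tRNA synthetase; the read-out is not stated. Target: Tryptophan-tRNA ligase, Mycobacterium tuberculosis (UniProt P9WFT3). Tested at 10 µM. Direction is not recorded; retested compounds ran higher, which suggests that high means inhibition. Of about 65,000 compounds tested this way, about 64 (0.098%) reached 50% or more in at least one test.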
ClpP1P2: 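ClpP1P2, Mycobacterium tuberculosis (UniProt P9WPC5 and UniProt P9WPC3). Protease assay of ClpP1P2, read by the AMC dye that it sets free. Compounds at 50 µM. Higher reads as stronger inhibition, judged from the few compounds that gave an IC50. Most other retested compounds had strongly negative values. About 69,000 compounds were tested under these conditions; 0.015% (about 10) showed 50% or more at least once.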

* CC(c1cccs1)N(C)C(=O)c1cc(CN(C)Cc2ccccc2)on1 (stereo not shown) | Pks13 thioesterase: -19.17%; TcHisRS: 6.548%; MtTrpRS: 7.301%; ClpP1P2: -13.35%
* Cc1ccc(-c2noc(C(C)(C)NS(C)(=O)=O)n2)cc1F | Pks13 thioesterase: -6.763%; TcHisRS: 6.931%; MtTrpRS: 0.06473%; ClpP1P2: -2.007%
* CN(C)C(=O)N1CCCC(C(=O)N(C)CCCc2cnn(C)c2)C1 (stereo not shown) | Pks13 thioesterase: -11.46%; TcHisRS: 5.952%; MtTrpRS: 2.469%; ClpP1P2: 3.957%
* O=C(c1ccc2ccccc2c1)C1CCCN(C(=O)Cn2cnnn2)C1 (stereo not shown) | Pks13 thioesterase: 1.72%; TcHisRS: 0.5348%; MtTrpRS: -1.445%; ClpP1P2: -2.13%
* CN(Cc1cccnc1)CC1CCCN1c1cccnn1 (stereo not shown) | Pks13 thioesterase: -9.953%; TcHisRS: -3.396%; MtTrpRS: -0.07819%; ClpP1P2: 17.54%
* CCc1cc(NCCC(F)(F)F)nc(N2CCOCC2)n1 | Pks13 thioesterase: -33.71%; TcHisRS: -1.316%; MtTrpRS: 1.651%; ClpP1P2: -1.764%
* CS(=O)(=O)N1CCC(CNC(=O)c2cnccn2)CC1 | Pks13 thioesterase: -27.92%; TcHisRS: -1.205%; MtTrpRS: 1.373%; ClpP1P2: 0.3838%
* NC(c1ccccc1)c1ccc(OC(F)F)cc1 (stereo not shown) | Pks13 thioesterase: 9.33%; TcHisRS: 8.808%; MtTrpRS: -0.5663%; ClpP1P2: -6.321%
* CCN1CCN(C[C@@H]2CN(Cc3cnc(C(C)C)nc3)C[C@@H]2CO)CC1 | Pks13 thioesterase: -5.512%; TcHisRS: -2.174%; MtTrpRS: 7.265%; ClpP1P2: 9.426%
* Cc1n[nH]c(C)c1-c1cnc(CC2CCCN(S(C)(=O)=O)C2)cn1 (stereo not shown) | Pks13 thioesterase: 6.286%; TcHisRS: 2.239%; MtTrpRS: -0.05798%; ClpP1P2: 0.3601%
* O[C@H]1CCCC[C@@H]1N1CCN(CCCc2ccc3c(c2)OCO3)CC1 | Pks13 thioesterase: -29.04%; TcHisRS: 4%; MtTrpRS: -1.61%; ClpP1P2: -3.394%
* Cc1cc(NC(=O)NCC(c2ccccc2)N2CCOCC2)n(C)n1 (stereo not shown) | Pks13 thioesterase: -1.114%; TcHisRS: 2.907%; MtTrpRS: -2.394%; ClpP1P2: -8.933%
* CCC1c2ccccc2CCN1C(=O)c1ccnc(C(=O)OC)c1 (stereo not shown) | Pks13 thioesterase: -200.2%; TcHisRS: 10.27%; MtTrpRS: 1.499%; ClpP1P2: -9.822%
* CC(=O)N1CCC(c2cccc(Oc3ccccc3)n2)CC1 | Pks13 thioesterase: -3.483%; TcHisRS: 7.895%; MtTrpRS: -5.074%; ClpP1P2: -20.06%
* CN(C)S(=O)(=O)N1C[C@H]2CCC[C@@]2(COCc2ccccn2)C1 | Pks13 thioesterase: 23.5%; TcHisRS: 5.882%; MtTrpRS: 11%; ClpP1P2: -0.6916%
* N#Cc1c(F)cccc1N1CCCC(C(=O)Nc2nncs2)C1 (stereo not shown) | Pks13 thioesterase: 18.33%; TcHisRS: 10.1%; MtTrpRS: 0.5939%; ClpP1P2: -4.729%
* Cc1ccc(CNC(=O)CN2CCCCC2Cn2cncn2)s1 (stereo not shown) | Pks13 thioesterase: -16.5%; TcHisRS: -18.08%; MtTrpRS: -6.257%; ClpP1P2: -31.91%

Once more, the final 2:

{"compound": "N#Cc1c(F)cccc1N1CCCC(C(=O)Nc2nncs2)C1", "stereo": "stereo not shown", "Pks13 thioesterase": 18.33, "TcHisRS": 10.1, "MtTrpRS": 0.5939, "ClpP1P2": -4.729}
{"compound": "Cc1ccc(CNC(=O)CN2CCCCC2Cn2cncn2)s1", "stereo": "stereo not shown", "Pks13 thioesterase": -16.5, "TcHisRS": -18.08, "MtTrpRS": -6.257, "ClpP1P2": -31.91}